No constants are given. Whether binding was seen depends on the method and setting. Some binding calls cover weakened binding; strength is not graded here.
Assays:
[1] = target: human Tim-3 expressed on the cell surface (human) (UniProt Q8TDQ0); assay: binding to CHO cells expressing human Tim-3
[2] = target: human Tim-3 expressed on the cell surface (human) (UniProt Q8TDQ0); assay: flow cytometry, activated primary human CD4+ T cells expressing Tim-3

Chains of the proteins cited; added tags and fusions are not shown. Lines headed by an entry give the natural chain unless they say otherwise; changes in a name come on top.
UniProt Q8TDQ0: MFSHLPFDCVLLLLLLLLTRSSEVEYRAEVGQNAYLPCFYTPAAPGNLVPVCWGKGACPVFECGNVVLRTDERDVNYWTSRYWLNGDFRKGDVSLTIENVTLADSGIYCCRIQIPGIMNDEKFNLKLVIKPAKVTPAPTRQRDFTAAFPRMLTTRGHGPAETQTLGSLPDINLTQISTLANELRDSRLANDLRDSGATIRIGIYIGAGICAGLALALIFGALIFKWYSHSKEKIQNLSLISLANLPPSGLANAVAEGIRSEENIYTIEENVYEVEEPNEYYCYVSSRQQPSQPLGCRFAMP

Row | binding [1] | binding [2] | Binder
1 | binds | – | mouse hybridoma clone 2D5 antibody (421.51.2.2D5.5E9) (antibody, V domains shown) VH: EVQLQQSGPELVKPGTSMKISCRASGYPFIGYTMNWVKQSHGGNLEWIGLINPYNGITTYNQKFKGRATLSVDTSSTIAYMELLSLTSDDSAEYYCARSFFYGSSNDWLVYWGQGTLVTVSA VL: DVLMTQTPLSLPVSLGDQASISCRSSQSIVHTNGNTYLEWYLQKPGQSPKLLIYKVSNRFSGVPDRFSGSGSGTDFTLKISRVEAEDLGVYYCFQGSHVPWTFGGGTELEIK
2 | – | binds | h22E11-5-IgG-LC × h22E11-VH4-30-4 (antibody, V domains shown) VH: QVQLQESGPGLVKPSQTLSLTCTVSGFSLTSYGVHWIRQPPGKGLEWLVVIWSDGSTTYNPSLKSRVTISKDTSKNQVSLKLSSVTAADTAVYYCARQGGYRYDDAMDYWGQGTLVTVSS VL: EIVLTQSPGTLSLSPGERATLSCKASQSVDYDGNSYVAWYQQKPGQAPRLLIYAASNLESGIPDRFSGSGSGTDFTLTISRLEPEDFAVYYCQQSNEDPYTFGQGTKVEIK
3 | – | binds | h22E11-VK1-39 × h22E11-VH4-30-4 (antibody, V domains shown) VH: QVQLQESGPGLVKPSQTLSLTCTVSGFSLTSYGVHWIRQPPGKGLEWLVVIWSDGSTTYNPSLKSRVTISKDTSKNQVSLKLSSVTAADTAVYYCARQGGYRYDDAMDYWGQGTLVTVSS VL: DIQLTQSPSSLSASVGDRVTITCKASQSVDYDGNSYVNWYQQKPGKAPKLLIYAASNLESGVPSRFSGSGSGTDFTLTISSLQPEDFATYYCQQSNEDPYTFGQGTKVEIK

— patent US20180251547A1
